Experiment: Circular dichroism: helicity, R1 and R2 in PBS or SDS micelles
Assay type: physicochemical
Conditions: for Helicity: estimated from the 222 nm band
[1] = 60 mM SDS micelles, 0.5 mM peptide, 10 mM PBS pH 7, 25 °C
[2] = PBS: 0.5 mM peptide in 10 mM PBS, pH 7, 25 °C

## CC[C@H](C)[C@H](NC(=O)[C@H](CCCCN)NC(=O)[C@H](CCC(=O)O)NC(=O)[C@H](CCCCN)NC(=O)[C@H](CO)NC(=O)[C@H](CCCCN)NC(=O)[C@H](CCCNC(=N)N)NC(=O)[C@H](Cc1ccccc1)NC(=O)[C@H](Cc1ccccc1)NC(=O)[C@H](CC(=O)O)NC(=O)CNC(=O)[C@H](CC(C)C)NC(=O)[C@@H](N)CC(C)C)C(=O)NCC(=O)N[C@@H](CCCCN)C(=O)N[C@@H](CCC(=O)O)C(=O)N[C@@H](Cc1ccccc1)C(=O)N[C@@H](CCCCN)C(=O)N[C@@H](CCCNC(=N)N)C(=O)N[C@H](C(=O)N[C@H](C(=O)N[C@@H](CCC(N)=O)C(=O)N[C@@H](CCCNC(=N)N)C(=O)N[C@H](C(=O)N[C@@H](CCCCN)C(=O)N[C@@H](CC(=O)O)C(=O)N[C@@H](Cc1ccccc1)C(=O)N[C@@H](CC(C)C)C(=O)N[C@@H](CCCNC(=N)N)C(=O)N[C@@H](CC(N)=O)C(=O)N[C@@H](CC(C)C)C(=O)N[C@H](C(=O)N1CCC[C@H]1C(=O)N[C@@H](CCCNC(=N)N)C(=O)N[C@H](C(=O)N[C@@H](CCC(=O)O)C(=O)N[C@@H](CO)C(=O)O)[C@@H](C)O)C(C)C)[C@@H](C)CC)C(C)C)[C@@H](C)CC [LL-37]
[1]
  R1 (molar ellipticity ratio 192/208): −2.08
  Helicity: 97.2%
PBS, 0.5 mM peptide
  helix% in phosphate buffer: 84%
[2]
  R1 (molar ellipticity ratio 192/208): −1.94
  Helicity: 83.8%

Reference: publication PMC8703873, “Structure and Activity of a Selective Antibiofilm Peptide SK-24 Derived from the NMR Structure of Human Cathelicidin LL-37” (Pharmaceuticals, 2021)
